For 1 substance, binding results are on record in PMC8273247.

The chains behind the UniProt entries cited, without tags or fusion partners. Residues count along the entry.
UniProt P0CG63, residues 1-76: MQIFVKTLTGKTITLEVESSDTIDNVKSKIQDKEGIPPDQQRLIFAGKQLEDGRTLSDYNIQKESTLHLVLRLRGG

No constants are given. Whether binding was seen depends on the method and setting. Some binding calls cover weakened binding; strength is not graded here.

The assay addresses T1, STAM1 UIM peptide (UniProt Q92783).
T1 sequence (peptide): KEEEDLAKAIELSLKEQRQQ
The assay can be described thus: peptide or protein array; peptide SPOT array (Intavis) on membrane, blocked overnight at 4°C in TBS (137 mM NaCl, 2.7 mM KCl, 50 mM Tris, pH 7.0) with 5% nonfat dry milk; incubated with 2 mg/ml 6His-TEV-Ubiquitin for 3 h at room temperature; detected with anti-6His antibody and AP-coupled secondary antibody; both purified.

With “recombinant yeast ubiquitin (6His-TEV-Ubiquitin) (from UniProt P0CG63 1-76)”, the binding entry is reported as “binds”.
